Literature values, collected in US20040219202A1, “Pharmaceutical composition comprising lipids comprising a polar and a nonpolar moiety” (priority 2001, published 2004).
At least one structure is not confirmed: it was looked up by name or label, or the drawing left a doubt.

Conditions: cited from earlier work

Row | SMILES | lamellar gel-to-liquid-crystalline transition temperature (Tm) | lamellar liquid crystalline-inverted hexagonal (Lα/HII) phase transition temperature (Th)
1 | CCCCCCCC/C=C\CCCCCCCC(=O)OC[C@H](COP(=O)([O-])OCC[N+](C)(C)C)OC(=O)CCCCCCC/C=C\CCCCCCCC [DOPC] | −18 °C | 
2 | CCCCCCCC/C=C\CCCCCCCC(=O)OCC(COP(=O)(O)OCCN)OC(=O)CCCCCCC/C=C\CCCCCCCC (centres unmarked) [DOPE, dioleoylphosphatidylethanolamine] |  | 10 °C
